According to publication PMC11164896:
No constants are given. Whether binding was seen depends on the method and setting. In cells and extracts the contact can be indirect. Some entries that bind do so weakly or less than the wild type. For some of these results: Tags and fused reporters may be left off the sequences shown.

T1: Myocardin-related transcription factor A (MRTF-A), endogenous in null-virus-transduced cells (human (endogenous in human coronary artery SMCs)) (UniProt Q969V6)
T1 sequence: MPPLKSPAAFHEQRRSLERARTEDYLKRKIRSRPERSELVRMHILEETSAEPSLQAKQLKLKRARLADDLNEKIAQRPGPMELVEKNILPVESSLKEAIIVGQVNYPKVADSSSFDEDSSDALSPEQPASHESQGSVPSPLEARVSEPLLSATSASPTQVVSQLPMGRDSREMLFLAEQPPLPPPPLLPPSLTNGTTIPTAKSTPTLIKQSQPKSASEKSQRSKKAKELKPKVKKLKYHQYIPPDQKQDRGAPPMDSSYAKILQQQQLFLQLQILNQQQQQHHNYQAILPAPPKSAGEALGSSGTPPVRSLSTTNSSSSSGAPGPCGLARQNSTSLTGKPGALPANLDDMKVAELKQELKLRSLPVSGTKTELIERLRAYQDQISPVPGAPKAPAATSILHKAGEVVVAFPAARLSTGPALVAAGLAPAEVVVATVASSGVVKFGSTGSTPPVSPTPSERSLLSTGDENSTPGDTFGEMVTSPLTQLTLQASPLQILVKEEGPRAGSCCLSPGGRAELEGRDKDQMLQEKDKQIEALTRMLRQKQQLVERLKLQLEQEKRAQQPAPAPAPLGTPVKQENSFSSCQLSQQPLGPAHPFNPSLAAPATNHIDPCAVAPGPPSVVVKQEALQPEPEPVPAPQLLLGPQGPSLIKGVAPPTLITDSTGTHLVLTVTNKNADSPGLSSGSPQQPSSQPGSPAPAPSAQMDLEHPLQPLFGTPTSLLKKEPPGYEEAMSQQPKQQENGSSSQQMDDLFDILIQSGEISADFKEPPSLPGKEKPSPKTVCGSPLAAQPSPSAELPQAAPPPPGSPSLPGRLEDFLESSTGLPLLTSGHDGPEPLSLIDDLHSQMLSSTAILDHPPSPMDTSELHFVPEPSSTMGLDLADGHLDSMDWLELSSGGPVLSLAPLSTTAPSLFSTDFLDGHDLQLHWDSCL

T2: Myocardin-related transcription factor A (MRTF-A), overexpressed from adenovirus Ad-h-MKL1/eGFP (human) (UniProt Q969V6)
T2 sequence: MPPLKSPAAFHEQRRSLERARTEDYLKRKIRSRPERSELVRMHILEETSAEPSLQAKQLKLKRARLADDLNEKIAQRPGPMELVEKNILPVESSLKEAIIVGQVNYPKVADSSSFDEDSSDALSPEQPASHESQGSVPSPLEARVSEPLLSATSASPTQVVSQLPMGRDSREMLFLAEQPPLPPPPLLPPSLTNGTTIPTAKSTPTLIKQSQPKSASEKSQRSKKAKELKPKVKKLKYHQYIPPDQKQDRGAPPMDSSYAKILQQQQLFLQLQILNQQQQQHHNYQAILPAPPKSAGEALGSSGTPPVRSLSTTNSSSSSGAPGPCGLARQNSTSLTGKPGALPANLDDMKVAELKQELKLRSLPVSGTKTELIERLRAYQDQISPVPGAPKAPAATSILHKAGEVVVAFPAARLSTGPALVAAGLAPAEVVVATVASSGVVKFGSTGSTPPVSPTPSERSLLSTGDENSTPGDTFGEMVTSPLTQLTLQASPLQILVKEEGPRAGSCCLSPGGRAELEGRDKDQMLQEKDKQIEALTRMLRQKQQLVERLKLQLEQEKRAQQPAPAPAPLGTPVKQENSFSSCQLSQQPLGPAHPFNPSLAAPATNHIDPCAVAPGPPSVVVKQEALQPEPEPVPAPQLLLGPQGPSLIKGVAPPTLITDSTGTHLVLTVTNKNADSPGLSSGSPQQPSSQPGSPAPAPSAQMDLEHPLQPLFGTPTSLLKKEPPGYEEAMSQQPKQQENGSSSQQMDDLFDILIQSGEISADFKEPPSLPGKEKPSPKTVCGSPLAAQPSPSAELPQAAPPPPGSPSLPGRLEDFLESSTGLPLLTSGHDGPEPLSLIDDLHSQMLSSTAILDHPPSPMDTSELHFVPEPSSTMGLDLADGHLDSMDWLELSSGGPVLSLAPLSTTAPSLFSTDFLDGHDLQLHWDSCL


Assays:
[1] = molecular target: T1, Myocardin-related transcription factor A (MRTF-A), endogenous in null-virus-transduced cells (human (endogenous in human coronary artery SMCs)); test: proximity ligation; Duolink in situ PLA on fixed, permeabilised human coronary artery SMCs after 4 days of null or MRTF-A virus; antibody pairs TBK1 + MRTF-A and P-TBK1 + MRTF-A; puncta mark proteins within 40 nm
[2] = molecular target: T2, Myocardin-related transcription factor A (MRTF-A), overexpressed from adenovirus Ad-h-MKL1/eGFP (human); test: as above
[3] = molecular target: T2, Myocardin-related transcription factor A (MRTF-A), overexpressed from adenovirus Ad-h-MKL1/eGFP (human); test: co-IP; anti-MRTF-A antibody coupled to AminoLink Plus resin (Pierce Co-IP kit), inactive control resin as control; pre-cleared lysates (~0.5 mg protein) of human coronary artery SMCs transduced with MRTF-A for 4 or 8 days, overnight at 4 °C; eluates read by dot blot; also cells treated with 100 nM jasplakinolide for the last 24 h

| binding [1] | binding [2] | binding [3] | Binder |
| --- | --- | --- | --- |
| binds | binds | binds | TANK-binding kinase 1 (TBK1), total (enzyme, UniProt Q9UHD2 1-729) MQSTSNHLWLLSDILGQGATANVFRGRHKKTGDLFAIKVFNNISFLRPVDVQMREFEVLKKLNHKNIVKLFAIEEETTTRHKVLIMEFCPCGSLYTVLEEPSNAYGLPESEFLIVLRDVVGGMNHLRENGIVHRDIKPGNIMRVIGEDGQSVYKLTDFGAARELEDDEQFVSLYGTEEYLHPDMYERAVLRKDHQKKYGATVDLWSIGVTFYHAATGSLPFRPFEGPRRNKEVMYKIITGKPSGAISGVQKAENGPIDWSGDMPVSCSLSRGLQVLLTPVLANILEADQEKCWGFDQFFAETSDILHRMVIHVFSLQQMTAHKIYIHSYNTATIFHELVYKQTKIISSNQELIYEGRRLVLEPGRLAQHFPKTTEENPIFVVSREPLNTIGLIYEKISLPKVHPRYDLDGDASMAKAITGVVCYACRIASTLLLYQELMRKGIRWLIELIKDDYNETVHKKTEVVITLDFCIRNIEKTVKVYEKLMKINLEAAELGEISDIHTKLLRLSSSQGTIETSLQDIDSRLSPGGSLADAWAHQEGTHPKDRNVEKLQVLLNCMTEIYYQFKKDKAERRLAYNEEQIHKFDKQKLYYHATKAMTHFTDECVKKYEAFLNKSEEWIRKMLHLRKQLLSLTNQCFDIEEEVSKYQEYTNELQETLPQKMFTASSGIKHTMTPIYPSSNTLVEMTLGMKKLKEEMEGVVKELAENNHILERFGSLTMDGGLRNVDCL |
| binds | binds | binds | Phosphorylated TANK-binding kinase 1 (p-TBK1, Ser172) (enzyme, UniProt Q9UHD2 1-729, phosphoserine at 172 (p-TBK1, Ser172)) MQSTSNHLWLLSDILGQGATANVFRGRHKKTGDLFAIKVFNNISFLRPVDVQMREFEVLKKLNHKNIVKLFAIEEETTTRHKVLIMEFCPCGSLYTVLEEPSNAYGLPESEFLIVLRDVVGGMNHLRENGIVHRDIKPGNIMRVIGEDGQSVYKLTDFGAARELEDDEQFVSLYGTEEYLHPDMYERAVLRKDHQKKYGATVDLWSIGVTFYHAATGSLPFRPFEGPRRNKEVMYKIITGKPSGAISGVQKAENGPIDWSGDMPVSCSLSRGLQVLLTPVLANILEADQEKCWGFDQFFAETSDILHRMVIHVFSLQQMTAHKIYIHSYNTATIFHELVYKQTKIISSNQELIYEGRRLVLEPGRLAQHFPKTTEENPIFVVSREPLNTIGLIYEKISLPKVHPRYDLDGDASMAKAITGVVCYACRIASTLLLYQELMRKGIRWLIELIKDDYNETVHKKTEVVITLDFCIRNIEKTVKVYEKLMKINLEAAELGEISDIHTKLLRLSSSQGTIETSLQDIDSRLSPGGSLADAWAHQEGTHPKDRNVEKLQVLLNCMTEIYYQFKKDKAERRLAYNEEQIHKFDKQKLYYHATKAMTHFTDECVKKYEAFLNKSEEWIRKMLHLRKQLLSLTNQCFDIEEEVSKYQEYTNELQETLPQKMFTASSGIKHTMTPIYPSSNTLVEMTLGMKKLKEEMEGVVKELAENNHILERFGSLTMDGGLRNVDCL |
|  |  | binds | Serum response factor (SRF) (protein, UniProt P11831 1-508) MLPTQAGAAAALGRGSALGGSLNRTPTGRPGGGGGTRGANGGRVPGNGAGLGPGRLEREAAAAAATTPAPTAGALYSGSEGDSESGEEEELGAERRGLKRSLSEMEIGMVVGGPEASAAATGGYGPVSGAVSGAKPGKKTRGRVKIKMEFIDNKLRRYTTFSKRKTGIMKKAYELSTLTGTQVLLLVASETGHVYTFATRKLQPMITSETGKALIQTCLNSPDSPPRSDPTTDQRMSATGFEETDLTYQVSESDSSGETKDTLKPAFTVTNLPGTTSTIQTAPSTSTTMQVSSGPSFPITNYLAPVSASVSPSAVSSANGTVLKSTGSGPVSSGGLMQLPTSFTLMPGGAVAQQVPVQAIQVHQAPQQASPSRDSSTDLTQTSSSGTVTLPATIMTSSVPTTVGGHMMYPSPHAVMYAPTSGLGDGSLTVLNAFSQAPSTMQVSHSQVQEPGGVPQVFLTASSGTVQIPVSAVQLHQMAVIGQQAGSSSNLTELQVVNLDTAHSTKSE |
